This continues a long series; more values of the same kind are listed elsewhere.
System: Rattus norvegicus
Settings: short-term, duration: 28 days, oral, gavage, F, Sprague-Dawley

Measured: NOEL

Cc1cccc(Nc2cc(Cl)nc(SCC(=O)O)n2)c1C [[4-Chloro-6-(2,3-xylidino)-2-pyrimidinylthio]acetic acid]
25 mg/kg-day: Nonneoplastic effects_Forestomach - Epithelium, hyperplasia | Nonneoplastic effects_Forestomach - Inflammation, chronic active | Nonneoplastic effects_Kidney - Nephropathy, chronic progressive | Nonneoplastic effects_Lymph nodes - Mandibular, atrophy | Nonneoplastic effects_Lymph nodes - Mesenteric, atrophy | Nonneoplastic effects_Nose - Respiratory epithelium, hyperplasia | Nonneoplastic effects_Nose - Respiratory epithelium, inflammation, chronic active | Nonneoplastic effects_Spleen - Atrophy | Nonneoplastic effects_Spleen - Extramedullary hematopoiesis, increased | Nonneoplastic effects_Thymus - Lymphocyte, apoptosis | Nonneoplastic effects_Thyroid gland - Follicular cell hypertrophy

— EPA's ToxValDB 9.5
